Results of single-concentration screens

Chains of the proteins cited; added tags and fusions are not shown. Residues count along the entry.
UniProt A4I591, 1-473: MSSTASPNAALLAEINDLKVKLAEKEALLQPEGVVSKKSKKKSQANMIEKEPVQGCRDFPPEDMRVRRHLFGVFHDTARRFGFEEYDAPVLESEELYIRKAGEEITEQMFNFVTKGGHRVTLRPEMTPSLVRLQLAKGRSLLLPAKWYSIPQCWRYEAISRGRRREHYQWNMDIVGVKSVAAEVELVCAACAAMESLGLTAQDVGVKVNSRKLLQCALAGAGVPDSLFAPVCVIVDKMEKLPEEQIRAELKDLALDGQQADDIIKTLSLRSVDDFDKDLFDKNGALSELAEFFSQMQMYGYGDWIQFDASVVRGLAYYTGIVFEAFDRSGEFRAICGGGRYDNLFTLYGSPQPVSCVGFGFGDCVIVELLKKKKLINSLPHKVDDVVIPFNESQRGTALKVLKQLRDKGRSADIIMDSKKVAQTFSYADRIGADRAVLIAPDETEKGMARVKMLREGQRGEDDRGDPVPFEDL
UniProt P9WFT3, whole entry: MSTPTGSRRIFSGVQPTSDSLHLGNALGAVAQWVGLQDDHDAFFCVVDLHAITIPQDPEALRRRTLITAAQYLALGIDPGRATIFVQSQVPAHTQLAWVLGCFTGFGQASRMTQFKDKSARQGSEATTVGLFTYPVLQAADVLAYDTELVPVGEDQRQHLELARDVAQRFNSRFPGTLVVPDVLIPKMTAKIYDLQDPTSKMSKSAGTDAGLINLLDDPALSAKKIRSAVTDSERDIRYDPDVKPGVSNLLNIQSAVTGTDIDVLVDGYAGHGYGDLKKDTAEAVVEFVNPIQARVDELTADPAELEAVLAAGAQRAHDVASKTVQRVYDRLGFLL
UniProt P9WNZ1, whole entry: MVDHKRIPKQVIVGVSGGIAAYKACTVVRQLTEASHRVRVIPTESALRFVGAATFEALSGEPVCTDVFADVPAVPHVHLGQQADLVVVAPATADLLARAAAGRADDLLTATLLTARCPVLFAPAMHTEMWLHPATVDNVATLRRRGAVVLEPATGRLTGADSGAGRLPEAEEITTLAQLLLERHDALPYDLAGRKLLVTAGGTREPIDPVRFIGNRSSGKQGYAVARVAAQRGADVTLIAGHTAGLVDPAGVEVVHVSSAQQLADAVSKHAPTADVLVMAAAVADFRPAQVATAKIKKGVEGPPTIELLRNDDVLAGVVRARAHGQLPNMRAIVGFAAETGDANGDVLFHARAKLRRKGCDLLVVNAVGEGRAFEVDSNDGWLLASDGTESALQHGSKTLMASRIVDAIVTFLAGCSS

Results are given as percent effect. The controls that fix the scale are not given in the record; negative values are as filed. The compounds are a random part of those screened. Two or more numbers in one place are separate tests of the same structure; such repeats can differ widely. A dash means the value is not listed here; it may have been measured.

LiHisRS: 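Enzyme assay of histidyl-tRNA synthetase; the read-out is not stated. Target: Histidine-tRNA ligase, Leishmania infantum (UniProt A4I591). Compounds at 30 µM. Higher reads as stronger inhibition (inferred: compounds with an IC50 in retests scored well above the rest). The assay is labelled LdHisRS but filed under L. infantum. Size under these conditions: about 69,000 compounds, about 410 of them at 50% or above in at least one test.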
MtTrpRS: 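Enzyme assay of tryptophanyl-tRNA synthetase; the read-out is not stated. Target: Tryptophan-tRNA ligase, Mycobacterium tuberculosis (UniProt P9WFT3). Tested at 10 µM. Higher most likely means stronger inhibition; the record gives no direction and few retests gave an IC50. Of about 65,000 compounds tested this way, about 64 (0.098%) reached 50% or more in at least one test.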
Toxoplasma: 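Assay of Toxoplasma gondii numbers, read through their beta-galactosidase reporter with a colour substrate. Tested at 10 µM. The record gives no direction; the compounds picked for IC50 retests had high values, so higher reads as fewer parasites. Of about 67,000 compounds tested this way, about 260 (0.38%) reached 50% or more in at least one test.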
CoaBC: 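Coenzyme A biosynthesis protein CoaBC, Mycobacterium tuberculosis (UniProt P9WNZ1). Enzyme assay of CoaBC with a phosphate dye (Biomol Green) read at 650 nm. Tested at 30 µM. Higher reads as stronger inhibition, judged from the few compounds that gave an IC50. Most strong results did not repeat in a second test. About 67,000 compounds were tested under these conditions; 0.06% (about 40) showed 50% or more at least once.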

structure,LiHisRS,MtTrpRS,Toxoplasma,CoaBC
Cc1ccc(CNC(=O)c2c[nH]nc2NC(=O)C2CCC2)cc1,14.52,-0.7807,-,-0.369
O=C(O)C(c1cccc2c1OCC2)N1CCC(N2CCSCC2)CC1 (centres unmarked),14.29,3.526,-1.834,10.15
CCn1ncnc1C1CC(=O)NCc2nc3ccccn3c21 (centres unmarked),17.14,2.757,-6.679,12.28
Cc1cc(C)n(CCC(=O)N2CCC(Nc3cccnn3)CC2)n1,0,-6.136,7.12,2.813
CN1CC[C@]2(CN(CC3CCOC3)C[C@H]2c2ccccc2)C1=O.O=C(O)C(F)(F)F (some centres unmarked),-,-,-3.954,-
O=C(O)c1ccnc(-c2ccnc(COc3ccccc3Cl)n2)c1,20.8,3.311,17.36,-4.39
COc1ccc2cc(NC(=O)CCNc3ncccn3)cnc2c1,0,-2.591,1.415,2.273
O=C(Nc1nncs1)NC1CCCc2c1cnn2CCO (centres unmarked),2.679,-1.521,5,0.4132
NC(=O)NCC1CCCCN1C(=O)c1cccc(C(F)(F)F)c1 (centres unmarked),10.61,-2.047,-14.75,2.838
[H][C@@]12CN(Cc3ccccn3)C[C@]1([H])OCCN2CC1CCCO1 (some centres unmarked),-,-,1.99,-
CS(=O)(=O)CC(=O)N1C[C@H]2CCC[C@@]2(COCc2ccccn2)C1,13.53,1.308,-,3.085
CCc1n[nH]c(C(=O)N2CCN(c3ccc4ccccc4c3)CC2)c1C,18.03,-1.22,5.556,-2.99
CN(C)CCN1CCC2(CCN(C(=O)c3cccc(F)c3)CC2)C1=O,4.587,6.634,-,-2.588
CN(C)C(=O)CN1C[C@@H]2CC[C@H](C1)N(Cc1c(Cl)cncc1Cl)C2,24,5.117,-,0.2439
COCCCNc1nc(CNC(=O)C2CCC2)cc(-c2ccco2)n1,22.86,-,0.6653,-0.8434
CC(C)Nc1nc(-c2ccccc2)nc2c1CCN(C(=O)C1CC1)CC2.O=C(O)C(F)(F)F,-,-,-27.39,-
Cc1n[nH]cc1CNC(C)c1cccc(N2CCCC2=O)c1 (centres unmarked),18.75,7.243,-,10.71
Cn1nccc1-c1ccc2nc(C3CCN(CC4CC4)CC3)nn2c1,13.89,-8.067,-,1.546 and 41.06
O=C(O)C(F)(F)F.[H][C@@]12COC[C@]1([H])[C@@H](OCCN(C)C)CN2C(=O)c1cccs1,-,-,-1.605,-
O=C(O)C(F)(F)F.O=C(O)C(F)(F)F.O=C(O)C(F)(F)F.O=C(O)C(F)(F)F.[H][C@@]12CN(Cc3ccccn3)C[C@]1([H])OCCN2CCN(C)C,-,-,-10.83,-
Cc1cccnc1CNCC1(O)CCCN(CC2CCCCC2)C1=O (centres unmarked),15.24,0.5848,-4.963,1.316
O=C(O)C(F)(F)F.O=C(O)C(F)(F)F.[H][C@@]12CCCO[C@]1([H])[C@H](N(C)Cc1cccnc1)CN2C(=O)c1ccno1,-,-,-31.88,-
COc1cccc(COCC(=O)N2CCCC(n3ccnc3C)C2)c1 (centres unmarked),-4.255,3.489,-0.9774,4.663
Cn1cnnc1C1CCN(C(=O)CCCOc2ccccc2)CC1,5.357,-0.1298,-3.314,10.91
Cc1cc(CN2CC[C@H]3C(=O)N(c4cccnc4)CCO[C@H]3C2)no1,5,0.6823,-,-3.337
Cc1nc(C(=O)NCc2ccc(N3CCNC(=O)C3)c(F)c2)cs1,14.52,-3.994,1.248,-0.978
COc1ccnc(N2CCN(C(=O)Cc3ccn(C(C)C)n3)CC2)n1,18.58,-4.765,10.14,4.178
COc1ccc(N(C(=O)c2ccccn2)C(C)C)cc1F,7.042,-4.095,0.05058,-0.9153
c1ccc(O[C@@H]2CC[C@H]3[C@H]2OCCN3CC2CCOCC2)nc1,14.29,-1.465,-,-1.629
O=C(NCCN1CCOC1=O)c1cnc(-c2cccnc2)nc1,17.65,-0.6056,3.48,5.178
O=C(O)C(F)(F)F.O=C(O)C(F)(F)F.O=C(O)C(F)(F)F.[H][C@@]12CCN(Cc3cccnc3)C[C@]1([H])[C@@H](CN(C)Cc1ccco1)OC2,-,-,0.3205,-
N#Cc1ccc(S(=O)(=O)Nc2ccccc2C#N)cn1,9.859,-1.147,12.9,6.407
c1cc(CN2CCN(Cc3ccon3)C3(CCCCC3)C2)no1,16.67,-0.5228,14.08,-5.16
O=C(c1cc(CC2(NC3CCCCC3)COC2)no1)N1CCCCC1,-8.333,1.431,-5.74,9.707
Cn1cc(C(=O)NCc2cn3c(n2)CN(CC2CCOC2)CC3)cn1 (centres unmarked),22.22,3.47,-,1.152

For reference, 2 entries once more:

- O=C(O)C(F)(F)F.O=C(O)C(F)(F)F.[H][C@@]12CCCO[C@]1([H])[C@H](N(C)Cc1cccnc1)CN2C(=O)c1ccno1 : Toxoplasma: -31.88%
- COCCCNc1nc(CNC(=O)C2CCC2)cc(-c2ccco2)n1 : LiHisRS: 22.86%; Toxoplasma: 0.6653%; CoaBC: -0.8434%

The values are deposited in ChEMBL (CHEMBL3988442, “University of Dundee, Small-Polar-MMV Screening Library” (2021)).